Results are given in words; binding and its absence hold for the method and conditions named. Binding seen in cells or lysates may run through a third protein. Binding calls can cover weak binding; strength is not graded here.

Amino acid sequences for entries named in this document (tags omitted). A change or cut given only in a name is not applied to a line headed by its entry.
UniProt G5EFC1: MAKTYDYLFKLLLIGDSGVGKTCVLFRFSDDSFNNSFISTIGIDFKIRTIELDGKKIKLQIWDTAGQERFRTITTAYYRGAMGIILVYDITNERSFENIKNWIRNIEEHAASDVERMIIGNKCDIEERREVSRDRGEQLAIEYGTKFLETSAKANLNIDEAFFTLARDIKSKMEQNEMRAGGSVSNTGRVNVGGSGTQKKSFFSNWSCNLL
UniProt Q20759: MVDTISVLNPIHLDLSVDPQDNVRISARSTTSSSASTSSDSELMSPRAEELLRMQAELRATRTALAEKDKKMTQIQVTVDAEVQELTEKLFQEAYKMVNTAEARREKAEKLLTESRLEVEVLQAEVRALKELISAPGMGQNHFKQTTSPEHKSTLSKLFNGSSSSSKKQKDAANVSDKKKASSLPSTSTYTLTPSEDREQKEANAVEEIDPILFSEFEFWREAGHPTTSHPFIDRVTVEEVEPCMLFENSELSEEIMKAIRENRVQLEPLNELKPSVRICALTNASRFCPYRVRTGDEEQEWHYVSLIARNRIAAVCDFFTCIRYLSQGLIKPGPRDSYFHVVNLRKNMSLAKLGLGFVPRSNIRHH

For this experiment, the target named is Flag::RAB-8 (C. elegans) (UniProt G5EFC1). Put plainly: co-IP; GFP::RABN-8 and Flag::RAB-8 co-transfected in HEK293 cells; lysis in RIPA buffer; IP with anti-Flag antibody overnight at 4 °C, protein A/G agarose; blot with anti-GFP; mouse IgG as negative control.

Consider GFP::RABN-8 (from UniProt Q20759), for which the binding result was “binds”.

Values taken from publication PMC7589727.
